Measurements reported in PubChem BioAssay AID1259254 (NCATS, 2017)
Shown is one part, drawn at random, of about 59,000 deposited reagents. About 1,550 of them (2.6%) count as active. 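G2 share is only a proxy for re-replication; each gene was hit by three separate siRNAs, and active genes were retested.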 Unmarked entries are inactive. Reagents against one gene are numbered here. Not all columns of the deposit are shown. Not given: the amount of reagent.

Assay: 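Genome-wide screen for genes that prevent DNA re-replication in cancer cells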 (primary screen)
System: human HCT116 colorectal cancer cells
Knock-down reagent: single siRNA against human genes
Timing: 3 days
Read-out: 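Nuclei stained with Hoechst and imaged; cell-cycle phase assigned by DNA content; G2 share scaled per plate, non-targeting siRNA 0%, GMNN siRNA 100%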
Direction: G2 robust z-score and G2 cells, % of GMNN control: higher = more G2 cells, more excess DNA replication
Rule for the call: 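An siRNA counts as active if its G2 robust z-score lies at least 5 MADs above the screen median; here such calls match roughly 38% of GMNN control or more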

ZNF500 #1: G2 robust z-score = -0.468; G2 cells, % of GMNN control = -0.324
ZNF500 #2: G2 robust z-score = 0.448; G2 cells, % of GMNN control = 6.12
ZNF500 #3: G2 robust z-score = -0.872; G2 cells, % of GMNN control = -3.17
PRIMA1 #1: G2 robust z-score = 1.52; G2 cells, % of GMNN control = 13.7
PRIMA1 #2: G2 robust z-score = -0.808; G2 cells, % of GMNN control = -2.72
PRIMA1 #3: G2 robust z-score = -1.11; G2 cells, % of GMNN control = -4.86
KLHL12 #1: G2 robust z-score = -0.000691; G2 cells, % of GMNN control = 2.96
KLHL12 #2: G2 robust z-score = -0.438; G2 cells, % of GMNN control = -0.115
KLHL12 #3: G2 robust z-score = 0.752; G2 cells, % of GMNN control = 8.26

Reformatted: 3 of the entries above.
gene,reagent no.,G2 robust z-score,"G2 cells, % of GMNN control"
ZNF500,1,-0.468,-0.324
ZNF500,2,0.448,6.12
ZNF500,3,-0.872,-3.17

Next reagents:
SCN11A #1: G2 robust z-score = 0.506; G2 cells, % of GMNN control = 6.53
SCN11A #2: G2 robust z-score = 0.67; G2 cells, % of GMNN control = 7.68
SCN11A #3: G2 robust z-score = 1.11; G2 cells, % of GMNN control = 10.7
MIEF1 #1: G2 robust z-score = -0.0161; G2 cells, % of GMNN control = 2.85
MIEF1 #2: G2 robust z-score = 1.09; G2 cells, % of GMNN control = 10.6
MIEF1 #3: G2 robust z-score = 1.73; G2 cells, % of GMNN control = 15.1
LUC7L3 #1: G2 robust z-score = -1.05; G2 cells, % of GMNN control = -4.43
LUC7L3 #2: G2 robust z-score = -0.3; G2 cells, % of GMNN control = 0.853
LUC7L3 #3: G2 robust z-score = 0.675; G2 cells, % of GMNN control = 7.72
PEX19 #1: G2 robust z-score = 0.241; G2 cells, % of GMNN control = 4.67
PEX19 #2: G2 robust z-score = 0.953; G2 cells, % of GMNN control = 9.67
PEX19 #3: G2 robust z-score = -0.73; G2 cells, % of GMNN control = -2.17
GPX2 #1: G2 robust z-score = -0.241; G2 cells, % of GMNN control = 1.27
GPX2 #2: G2 robust z-score = 1.4; G2 cells, % of GMNN control = 12.8
GPX2 #3: G2 robust z-score = -1.18; G2 cells, % of GMNN control = -5.35
